Step yield data for six substances are collected here from patent US20150246136A1 (priority 2011, published 2015).

The nature of this data set: general procedure: solution-phase peptide synthesis; HATU/DIPEA or EDC/HOBt/DIPEA. The conditions noted are these: trifluoroacetate.

As to Boc-Intermediate 55, the step yield (coupling step) is listed as 81% of theory.
On to “N-(3-aminopropyl)-N-methyl-L-valyl-N-[(3R,4S,5S)-3-methoxy-1-{(2S)-2-[(1R,2R)-1-methoxy-2-methyl-3-{[(1S,2R)-1-(1,2-oxazinan-2-ylcarbonyl)-2-phenylcyclopropyl]amino}-3-oxopropyl]pyrrolidin-1-yl}-5-methyl-1-oxoheptan-4-yl]-N-methyl-L-valinamide”, for which, where the note is “late stage modification step, over two stages”, the step yield was 41% of theory over two stages.
With “N-(3-carboxypropyl)-N-methyl-L-valyl-N-[(3R,4S,5S)-1-{(2S)-2-[(1R,2R)-3-{[(2S)-1-(adamantan-1-ylmethoxy)-1-oxo-3-phenylpropan-2-yl]amino}-1-methoxy-2-methyl-3-oxopropyl]pyrrolidin-1-yl}-3-methoxy-5-methyl-1-oxoheptan-4-yl]-N-methyl-L-valinamide”, the step yield (late stage modification step) is 73% of theory.
On the same count and under the same terms, as for “N-(3-carboxypropyl)-N-methyl-L-valyl-N-[(3R,4S,5S)-1-{(2S)-2-[(1R,2R)-3-{[(2S)-1-(benzyloxy)-1-oxo-3-phenylpropan-2-yl]amino}-1-methoxy-2-methyl-3-oxopropyl]pyrrolidin-1-yl}-3-methoxy-5-methyl-1-oxoheptan-4-yl]-N-methyl-L-valinamide”, the figure is 39% of theory.
Still for that read-out and setting: as for “N-(3-carboxypropyl)-N-methyl-L-valyl-N-[(3R,4S,5S)-1-{(2S)-2-[(1R,2R)-3-{[(2S)-1-(benzyloxy)-3-phenylpropan-2-yl]amino}-1-methoxy-2-methyl-3-oxopropyl]pyrrolidin-1-yl}-3-methoxy-5-methyl-1-oxoheptan-4-yl]-N-methyl-L-valinamide”, the figure is 65% of theory; as for “N-(3-carboxypropyl)-N-methyl-L-valyl-N-[(3R,4S,5S)-3-methoxy-1-{(2S)-2-[(1R,2R)-1-methoxy-2-methyl-3-{[(2S)-1-(1,2-oxazinan-2-yl)-1-oxo-3-phenylpropan-2-yl]amino}-3-oxopropyl]pyrrolidin-1-yl}-5-methyl-1-oxoheptan-4-yl]-N-methyl-L-valinamide”, 70% of theory.
